Measurements reported in PubChem BioAssay AID686938 (Drosophila RNAi Screening Center, 2013)
Purpose: 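Fly genes required for calcium entry once internal stores are emptied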 (primary screen). Cell system: Drosophila S2R+ cells. Reagents: long dsRNA against Drosophila genes, about 0.25 µg dsRNA per well, roughly 10,000 cells. Timing: 5 days of knock-down before the calcium assay. Challenge: thapsigargin (SERCA pump blocker) to empty calcium stores; entry signal taken 4 min after adding it. Read-out: 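Per-well fluo-4 fluorescence in two replicates, unnormalised, measured in resting cells and 4 min after store depletion by the SERCA blocker thapsigargin; ratio of the two present in few wells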. Direction: calcium entry signal: higher = stronger calcium signal after store depletion; entry to resting ratio: higher = more calcium entry relative to resting level; resting calcium signal: higher = higher resting calcium signal. Call rule: 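Called when the plate z-score of the entry-to-rest ratio, mean of duplicates, falls below −3; wells with low overall dye signal (Fmax z below −2) or more than five off-targets excluded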. Meaning of the calls: active = strongly reduced calcium entry; inactive = no strong reduction.
In all, the deposit lists about 23,000 reagents; shown is an unselected part of those that have a named target and a result. Over the whole deposit, 75 (0.33%) are marked active. 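Raw plate signals without normalisation; calls rest on plate z-scores that were not deposited; ratio present for only 364 wells.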 Unmarked entries are inactive. Names joined by + are all predicted targets of the reagent. Not given: the dose of the treatment.

no.	target gene	amplicon	calcium entry signal, replicate 1 (fluorescence units)	calcium entry signal, replicate 2 (fluorescence units)	entry to resting ratio	resting calcium signal, replicate 1 (fluorescence units)	resting calcium signal, replicate 2 (fluorescence units)
1	stc	DRSC03620	4.19e7			2.14e7	
2	CG13324	DRSC06361	2.17e7	3.04e7		1.07e7	1.34e7
3	CAH7	DRSC15524	2.53e7	2.18e7		1.35e7	1.22e7
4	Spase25	DRSC19776	2.93e7	3.21e7		1.43e7	1.37e7
5	CG15330	DRSC18014	3.00e7	4.47e7		1.53e7	2.15e7
6	CG15912	DRSC18105	3.53e7	4.40e7		1.83e7	1.90e7
7	bs	DRSC04676	2.77e7	4.61e7		1.74e7	2.30e7
8	bs	DRSC23068	5.14e7	2.77e7		2.68e7	1.23e7
9	CG13375	DRSC18621	4.12e7	5.55e7	2.2	1.84e7	2.22e7
10	zda	DRSC06936	3.70e7	4.20e7		1.87e7	2.06e7
11	CG15337	DRSC18020	3.15e7	4.42e7		1.51e7	2.01e7
12	CG15337	DRSC22778	4.45e7	4.27e7		2.64e7	2.00e7
13	Dop1R1	DRSC13020	3.92e7	3.75e7		2.20e7	1.81e7
14	Dop1R1	DRSC13021	3.59e7	4.12e7		2.07e7	1.88e7
15	Dop1R1	DRSC16652	2.00e7	4.53e7		1.03e7	5.07e7
16	wech	DRSC06606	4.28e7			2.23e7	

Next part, starting with the last 3 of the part before.
no.	target gene	amplicon	calcium entry signal, replicate 1 (fluorescence units)	calcium entry signal, replicate 2 (fluorescence units)	entry to resting ratio	resting calcium signal, replicate 1 (fluorescence units)	resting calcium signal, replicate 2 (fluorescence units)
14	Dop1R1	DRSC13021	3.59e7	4.12e7		2.07e7	1.88e7
15	Dop1R1	DRSC16652	2.00e7	4.53e7		1.03e7	5.07e7
16	wech	DRSC06606	4.28e7			2.23e7	
17	CG42375 + CG9288	DRSC16468	2.82e7	3.01e7		1.15e7	1.40e7
18	Mst98Cb	DRSC16750	3.37e7	4.12e7		1.69e7	2.22e7
19	Mst98Cb	DRSC22495	4.63e7	3.77e7		2.92e7	1.86e7
20	Mnt	DRSC17894	4.17e7	4.38e7		1.91e7	2.25e7
21	Mnt	DRSC18480	1.80e7	2.77e7		9.22e6	1.40e7
22	CSN1b	DRSC11108	3.17e7	3.82e7		1.78e7	2.89e7
23	CG15747	DRSC19713	2.86e7	2.64e7		1.63e7	1.50e7
24	CG33342	DRSC13662	3.63e7	3.80e7		1.75e7	1.96e7
